# The list shows a part of the results.
# B1: HopZSSI-T (Helicobacter pylori), B5Z6D0 (protein)
# chain: MGSSHHHHHHSSGLVPRGSHMENLYFQGEDNGFFISAGYQIGEAAQMVKNTGELKKLSDTYENLSNLLTNFNNLNQAVTNASSPSEINAAIDNLKANTQGLTGEKTNSPAYQAVYLALNAAVGLWNVIAYNVQCGPGNSSQQSVTFEGQPGHNSSSINCNLTGYNNGVSGPLSIDNFKQLNQAYQVLQQALKQGVPVLNNTNQKIEVKVTTQTNGQSSKETTTTTTTNDAQTLLQEASKMIDVLTTNCPWVNHNPGQNGGAPWGLIRQECVSGFATEFSAVTSMIKNAQEIVTQAQSLNANQNNQNAPQDFNPYTSADRAFAQNMLNHAQAQAKILELADQMKKDLNTIPSQFITNYLAACRIDGTTPSQGVTNNTWGAGCAYVEETITALNNSLAHFGTQAEQIKQSELLARTILDFRGSLSTLNSTYNSITTTASNTPNSPFLKNLISQSTNPNNPGGLQAVYQVNQSAYSQLLSATQELGHNPFRRIGLISSQT
# Legend:
# Experiment in all cases: glycan array binding signal (z-score within array); higher = stronger binding
# Conditions in all cases: glycan notation: IUPAC condensed, linker removed
# [1] = target: Fuc(a1-2)[Gal(a1-4)]Gal(b1-4)GlcNAc
# Summary of the method: (§1)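 Glycan array data were curated from 3228 arrays in the Consortium for Functional Glycomics database and kept only where the protein sequence was available. Glycan names were converted to IUPAC-condensed notation, and columns mapping to the same glycan were averaged. The binding signal is a within-array Z-score, averaged across arrays of the same protein sequence at different concentrations or buffers and across linkers. Negative Z-scores can be read as non-binding.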
# [2] = target: Fuc(a1-2)[GalNAc(a1-3)]Gal
# Summary of the method: as §1
# [3] = target: Fuc(a1-2)[GalNAc(a1-3)]Gal(b1-3)GalNAc(a1-3)[Fuc(a1-2)]Gal(b1-4)GlcNAc
# Summary of the method: as §1
# [4] = target: Fuc(a1-2)[GalNAc(a1-3)]Gal(b1-3)GalNAc(b1-3)Gal(a1-4)Gal(b1-4)Glc
# Summary of the method: as §1
# [5] = target: Fuc(a1-2)[GalNAc(a1-3)]Gal(b1-3)GlcNAc
# Summary of the method: as §1
# [6] = target: Fuc(a1-2)[GalNAc(a1-3)]Gal(b1-3)GlcNAc(b1-2)Man(a1-3)[Fuc(a1-2)[GalNAc(a1-3)]Gal(b1-3)GlcNAc(b1-2)Man(a1-6)]Man(b1-4)GlcNAc(b1-4)GlcNAc
# Summary of the method: as §1
# [7] = target: Fuc(a1-2)[GalNAc(a1-3)]Gal(b1-3)GlcNAc(b1-2)Man(a1-3)[Fuc(a1-2)[GalNAc(a1-3)]Gal(b1-3)GlcNAc(b1-2)Man(a1-6)]Man(b1-4)GlcNAc(b1-4)[Fuc(a1-6)]GlcNAc
# Summary of the method: as §1
# [8] = target: Fuc(a1-2)[GalNAc(a1-3)]Gal(b1-3)GlcNAc(b1-3)GalNAc
# Summary of the method: as §1
# [9] = target: Fuc(a1-2)[GalNAc(a1-3)]Gal(b1-3)GlcNAc(b1-6)GalNAc
# Summary of the method: as §1
# [10] = target: Fuc(a1-2)[GalNAc(a1-3)]Gal(b1-4)Glc
# Summary of the method: as §1
# [11] = target: Fuc(a1-2)[GalNAc(a1-3)]Gal(b1-4)GlcNAc
# Summary of the method: as §1
# [12] = target: Fuc(a1-2)[GalNAc(a1-3)]Gal(b1-4)GlcNAc(b1-2)Man
# Summary of the method: as §1
# [13] = target: Fuc(a1-2)[GalNAc(a1-3)]Gal(b1-4)GlcNAc(b1-2)Man(a1-3)[Fuc(a1-2)[GalNAc(a1-3)]Gal(b1-4)GlcNAc(b1-2)Man(a1-6)]Man(b1-4)GlcNAc(b1-4)GlcNAc
# Summary of the method: as §1
# [14] = target: Fuc(a1-2)[GalNAc(a1-3)]Gal(b1-4)GlcNAc(b1-2)Man(a1-3)[Fuc(a1-2)[GalNAc(a1-3)]Gal(b1-4)GlcNAc(b1-2)Man(a1-6)]Man(b1-4)GlcNAc(b1-4)[Fuc(a1-6)]GlcNAc
# Summary of the method: as §1
# [15] = target: Fuc(a1-2)[GalNAc(a1-3)]Gal(b1-4)GlcNAc(b1-3)Gal(b1-4)GlcNAc
# Summary of the method: as §1
# [16] = target: Fuc(a1-2)[GalNAc(a1-3)]Gal(b1-4)GlcNAc(b1-3)Gal(b1-4)GlcNAc(b1-3)Gal(b1-4)GlcNAc
# Summary of the method: as §1
# [17] = target: Fuc(a1-2)[GalNAc(a1-3)]Gal(b1-4)GlcNAc(b1-3)GalNAc
# Summary of the method: as §1
# [18] = target: Fuc(a1-2)[GalNAc(a1-3)]Gal(b1-4)GlcNAc(b1-3)[Fuc(a1-2)[GalNAc(a1-3)]Gal(b1-4)GlcNAc(b1-6)]GalNAc
# Summary of the method: as §1
# [19] = target: Fuc(a1-2)[GalNAc(a1-3)]Gal(b1-4)GlcNAc(b1-6)GalNAc
# Summary of the method: as §1
# [20] = target: Fuc(a1-2)[GalNAc(a1-3)]Gal(b1-4)[Fuc(a1-3)]GlcNAc
# Summary of the method: as §1
# [21] = target: Fuc(a1-2)[GalNAc(a1-3)]Gal(b1-4)[Fuc(a1-3)]GlcNAc(b1-3)GalNAc
# Summary of the method: as §1
# [22] = target: Fuc(a1-2)[GalNAc(a1-4)]Gal(b1-4)GlcNAc
# Summary of the method: as §1
# [23] = target: Fuc(a1-2)[GalNAc(b1-3)]Gal
# Summary of the method: as §1
# Fuc(a1-3)GlcNAc = target: Fuc(a1-3)GlcNAc
# Summary of the method: as §1
# [24] = target: Fuc(a1-3)[Gal(b1-4)]Glc6S
# Summary of the method: as §1
# [25] = target: Fuc(a1-3)[Gal(b1-4)]GlcNAc
# Summary of the method: as §1
# [26] = target: Fuc(a1-3)[Gal(b1-4)]GlcNAc(b1-2)Man
# Summary of the method: as §1
# [27] = target: Fuc(a1-3)[Gal(b1-4)]GlcNAc(b1-2)Man(a1-3)[Fuc(a1-3)[Gal(b1-4)]GlcNAc(b1-2)Man(a1-6)]Man(b1-4)GlcNAc(b1-4)GlcNAc
# Summary of the method: as §1
# [28] = target: Fuc(a1-3)[Gal(b1-4)]GlcNAc(b1-2)Man(a1-3)[Fuc(a1-3)[Gal(b1-4)]GlcNAc(b1-2)Man(a1-6)]Man(b1-4)GlcNAc(b1-4)[Fuc(a1-6)]GlcNAc
# Summary of the method: as §1
# [29] = target: Fuc(a1-3)[Gal(b1-4)]GlcNAc(b1-3)Gal(b1-3)[Fuc(a1-4)]GlcNAc
# Summary of the method: as §1
# [30] = target: Fuc(a1-3)[Gal(b1-4)]GlcNAc(b1-3)GalNAc
# Summary of the method: as §1
# [31] = target: Fuc(a1-3)[Gal(b1-4)]GlcNAc(b1-4)Gal(b1-4)[Fuc(a1-3)]GlcNAc
# Summary of the method: as §1
# [32] = target: Fuc(a1-3)[Gal(b1-4)]GlcNAc(b1-4)Gal(b1-4)[Fuc(a1-3)]GlcNAc(b1-4)Gal(b1-4)[Fuc(a1-3)]GlcNAc
# Summary of the method: as §1
# [33] = target: Fuc(a1-3)[Gal(b1-4)]GlcNAc(b1-6)GalNAc
# Summary of the method: as §1
# [34] = target: Fuc(a1-3)[Gal(b1-4)]GlcNAc(b1-6)[Gal(b1-3)GlcNAc(b1-3)]Gal(b1-4)Glc
# Summary of the method: as §1
# [35] = target: Fuc(a1-3)[Gal(b1-4)]GlcNAc6S
# Summary of the method: as §1
# [36] = target: Fuc(a1-3)[Gal3S(b1-4)]Glc
# Summary of the method: as §1
# [37] = target: Fuc(a1-3)[Gal3S(b1-4)]GlcNAc
# Summary of the method: as §1
binder,measurement,setting,value
B1,glycan array binding signal (z-score),[1],0.215
same,glycan array binding signal (z-score),[2],-0.229
same,glycan array binding signal (z-score),[3],-0.494
same,glycan array binding signal (z-score),[4],0.142
same,glycan array binding signal (z-score),[5],-0.52
same,glycan array binding signal (z-score),[6],-0.326
same,glycan array binding signal (z-score),[7],-0.463
same,glycan array binding signal (z-score),[8],0.065
same,glycan array binding signal (z-score),[9],-0.913
same,glycan array binding signal (z-score),[10],-0.824
same,glycan array binding signal (z-score),[11],-0.282
same,glycan array binding signal (z-score),[12],-0.475
same,glycan array binding signal (z-score),[13],-0.544
same,glycan array binding signal (z-score),[14],0.494
same,glycan array binding signal (z-score),[15],-0.116
same,glycan array binding signal (z-score),[16],0.205
same,glycan array binding signal (z-score),[17],1
same,glycan array binding signal (z-score),[18],0.499
same,glycan array binding signal (z-score),[19],-0.464
same,glycan array binding signal (z-score),[20],-0.057
same,glycan array binding signal (z-score),[21],0.538
same,glycan array binding signal (z-score),[22],-0.372
same,glycan array binding signal (z-score),[23],-0.815
same,glycan array binding signal (z-score),Fuc(a1-3)GlcNAc,0.003
same,glycan array binding signal (z-score),[24],0.491
same,glycan array binding signal (z-score),[25],-0.439
same,glycan array binding signal (z-score),[26],-0.196
same,glycan array binding signal (z-score),[27],-0.248
same,glycan array binding signal (z-score),[28],-0.378
same,glycan array binding signal (z-score),[29],-0.274
same,glycan array binding signal (z-score),[30],0.356
same,glycan array binding signal (z-score),[31],-0.536
same,glycan array binding signal (z-score),[32],-0.481
same,glycan array binding signal (z-score),[33],-0.281
same,glycan array binding signal (z-score),[34],0.695
same,glycan array binding signal (z-score),[35],0.325
same,glycan array binding signal (z-score),[36],-0.004
same,glycan array binding signal (z-score),[37],-0.516

# Some of the entries so far, with bars between the fields.
binder | measurement | setting | value
B1 | glycan array binding signal (z-score) | [3] | -0.494
same | glycan array binding signal (z-score) | [7] | -0.463
same | glycan array binding signal (z-score) | [16] | 0.205
same | glycan array binding signal (z-score) | [21] | 0.538
same | glycan array binding signal (z-score) | [23] | -0.815
same | glycan array binding signal (z-score) | [33] | -0.281
same | glycan array binding signal (z-score) | [37] | -0.516

# Source: the supplement of paper PMC8728848
